# Values quoted from earlier work as cited in patent US20210395309A1, “PEPTIDE-DRUG CONJUGATES” (Hong Kong Baptist University, priority 2020, published 2021).
# Details: cited from earlier work
smiles,measurement,value
"CC(=O)O[C@H]1C(=O)[C@@]2(C)[C@H]([C@H](OC(=O)c3ccccc3)[C@]3(O)C[C@H](OC(=O)[C@H](O)[C@@H](NC(=O)c4ccccc4)c4ccccc4)C(C)=C1C3(C)C)[C@]1(OC(C)=O)CO[C@@H]1C[C@@H]2O [PTX, Paclitaxel]",aqueous solubility,0.07 µg/mL
